From the supplement of paper PMC11006884
This is a selection; strong and weak results do not stand in their true shares. The data scatter; read single values as rough.

Protein sequences, listed by entry. Tags and fused reporters are not part of them. Lines headed by an entry give the natural chain unless they say otherwise; changes in a name come on top.
UniProt Q13642: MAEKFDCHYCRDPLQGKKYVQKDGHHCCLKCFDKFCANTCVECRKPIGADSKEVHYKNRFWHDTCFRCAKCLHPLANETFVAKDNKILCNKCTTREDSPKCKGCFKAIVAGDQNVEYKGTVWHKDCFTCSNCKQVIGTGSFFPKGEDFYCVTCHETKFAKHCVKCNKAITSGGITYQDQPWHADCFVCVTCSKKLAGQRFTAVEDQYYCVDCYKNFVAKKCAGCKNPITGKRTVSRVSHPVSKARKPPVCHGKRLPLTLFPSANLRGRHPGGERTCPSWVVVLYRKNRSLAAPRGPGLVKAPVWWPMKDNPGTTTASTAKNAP
UniProt Q13557, whole entry, looked up: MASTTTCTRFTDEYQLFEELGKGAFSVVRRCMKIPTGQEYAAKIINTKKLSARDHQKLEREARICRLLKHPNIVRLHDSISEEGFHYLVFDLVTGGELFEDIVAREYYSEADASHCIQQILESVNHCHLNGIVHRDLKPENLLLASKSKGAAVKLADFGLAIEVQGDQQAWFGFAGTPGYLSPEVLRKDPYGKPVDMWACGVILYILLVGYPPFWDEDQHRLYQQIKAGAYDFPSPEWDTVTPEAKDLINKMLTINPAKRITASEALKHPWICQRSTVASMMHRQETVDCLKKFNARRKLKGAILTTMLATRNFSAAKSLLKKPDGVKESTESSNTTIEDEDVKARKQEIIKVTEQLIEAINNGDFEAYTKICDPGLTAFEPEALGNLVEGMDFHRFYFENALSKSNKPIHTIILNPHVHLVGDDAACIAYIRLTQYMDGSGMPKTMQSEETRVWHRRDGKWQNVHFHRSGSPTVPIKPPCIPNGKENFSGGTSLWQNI
UniProt Q13561, whole entry, looked up: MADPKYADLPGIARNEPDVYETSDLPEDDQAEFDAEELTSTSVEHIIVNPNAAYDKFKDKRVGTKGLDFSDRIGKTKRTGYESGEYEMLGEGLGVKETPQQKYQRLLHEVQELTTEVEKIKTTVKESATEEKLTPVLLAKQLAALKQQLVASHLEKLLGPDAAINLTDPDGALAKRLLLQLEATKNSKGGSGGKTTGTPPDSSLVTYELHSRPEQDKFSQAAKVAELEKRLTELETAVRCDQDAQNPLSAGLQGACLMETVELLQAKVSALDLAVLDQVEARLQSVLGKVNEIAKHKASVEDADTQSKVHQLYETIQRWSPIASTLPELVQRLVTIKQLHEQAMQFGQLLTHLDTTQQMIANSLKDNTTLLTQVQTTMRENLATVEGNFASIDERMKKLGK
UniProt Q14166: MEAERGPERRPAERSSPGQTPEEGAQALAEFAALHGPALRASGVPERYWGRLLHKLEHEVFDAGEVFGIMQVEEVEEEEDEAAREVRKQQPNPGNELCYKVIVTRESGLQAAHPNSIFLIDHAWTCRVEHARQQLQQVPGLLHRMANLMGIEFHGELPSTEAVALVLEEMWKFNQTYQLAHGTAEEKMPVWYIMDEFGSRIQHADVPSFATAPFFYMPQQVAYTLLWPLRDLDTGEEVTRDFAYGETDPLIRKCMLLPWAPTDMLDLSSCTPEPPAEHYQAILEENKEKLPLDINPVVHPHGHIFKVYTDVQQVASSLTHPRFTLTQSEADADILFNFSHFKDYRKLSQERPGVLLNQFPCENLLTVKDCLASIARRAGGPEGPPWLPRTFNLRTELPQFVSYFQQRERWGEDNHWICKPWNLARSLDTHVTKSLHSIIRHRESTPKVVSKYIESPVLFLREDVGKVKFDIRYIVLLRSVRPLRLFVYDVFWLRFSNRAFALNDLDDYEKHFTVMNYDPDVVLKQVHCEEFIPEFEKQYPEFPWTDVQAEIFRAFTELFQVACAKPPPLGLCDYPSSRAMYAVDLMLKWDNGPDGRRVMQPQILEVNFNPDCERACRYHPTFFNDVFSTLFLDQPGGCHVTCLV
UniProt Q14204, whole entry, looked up: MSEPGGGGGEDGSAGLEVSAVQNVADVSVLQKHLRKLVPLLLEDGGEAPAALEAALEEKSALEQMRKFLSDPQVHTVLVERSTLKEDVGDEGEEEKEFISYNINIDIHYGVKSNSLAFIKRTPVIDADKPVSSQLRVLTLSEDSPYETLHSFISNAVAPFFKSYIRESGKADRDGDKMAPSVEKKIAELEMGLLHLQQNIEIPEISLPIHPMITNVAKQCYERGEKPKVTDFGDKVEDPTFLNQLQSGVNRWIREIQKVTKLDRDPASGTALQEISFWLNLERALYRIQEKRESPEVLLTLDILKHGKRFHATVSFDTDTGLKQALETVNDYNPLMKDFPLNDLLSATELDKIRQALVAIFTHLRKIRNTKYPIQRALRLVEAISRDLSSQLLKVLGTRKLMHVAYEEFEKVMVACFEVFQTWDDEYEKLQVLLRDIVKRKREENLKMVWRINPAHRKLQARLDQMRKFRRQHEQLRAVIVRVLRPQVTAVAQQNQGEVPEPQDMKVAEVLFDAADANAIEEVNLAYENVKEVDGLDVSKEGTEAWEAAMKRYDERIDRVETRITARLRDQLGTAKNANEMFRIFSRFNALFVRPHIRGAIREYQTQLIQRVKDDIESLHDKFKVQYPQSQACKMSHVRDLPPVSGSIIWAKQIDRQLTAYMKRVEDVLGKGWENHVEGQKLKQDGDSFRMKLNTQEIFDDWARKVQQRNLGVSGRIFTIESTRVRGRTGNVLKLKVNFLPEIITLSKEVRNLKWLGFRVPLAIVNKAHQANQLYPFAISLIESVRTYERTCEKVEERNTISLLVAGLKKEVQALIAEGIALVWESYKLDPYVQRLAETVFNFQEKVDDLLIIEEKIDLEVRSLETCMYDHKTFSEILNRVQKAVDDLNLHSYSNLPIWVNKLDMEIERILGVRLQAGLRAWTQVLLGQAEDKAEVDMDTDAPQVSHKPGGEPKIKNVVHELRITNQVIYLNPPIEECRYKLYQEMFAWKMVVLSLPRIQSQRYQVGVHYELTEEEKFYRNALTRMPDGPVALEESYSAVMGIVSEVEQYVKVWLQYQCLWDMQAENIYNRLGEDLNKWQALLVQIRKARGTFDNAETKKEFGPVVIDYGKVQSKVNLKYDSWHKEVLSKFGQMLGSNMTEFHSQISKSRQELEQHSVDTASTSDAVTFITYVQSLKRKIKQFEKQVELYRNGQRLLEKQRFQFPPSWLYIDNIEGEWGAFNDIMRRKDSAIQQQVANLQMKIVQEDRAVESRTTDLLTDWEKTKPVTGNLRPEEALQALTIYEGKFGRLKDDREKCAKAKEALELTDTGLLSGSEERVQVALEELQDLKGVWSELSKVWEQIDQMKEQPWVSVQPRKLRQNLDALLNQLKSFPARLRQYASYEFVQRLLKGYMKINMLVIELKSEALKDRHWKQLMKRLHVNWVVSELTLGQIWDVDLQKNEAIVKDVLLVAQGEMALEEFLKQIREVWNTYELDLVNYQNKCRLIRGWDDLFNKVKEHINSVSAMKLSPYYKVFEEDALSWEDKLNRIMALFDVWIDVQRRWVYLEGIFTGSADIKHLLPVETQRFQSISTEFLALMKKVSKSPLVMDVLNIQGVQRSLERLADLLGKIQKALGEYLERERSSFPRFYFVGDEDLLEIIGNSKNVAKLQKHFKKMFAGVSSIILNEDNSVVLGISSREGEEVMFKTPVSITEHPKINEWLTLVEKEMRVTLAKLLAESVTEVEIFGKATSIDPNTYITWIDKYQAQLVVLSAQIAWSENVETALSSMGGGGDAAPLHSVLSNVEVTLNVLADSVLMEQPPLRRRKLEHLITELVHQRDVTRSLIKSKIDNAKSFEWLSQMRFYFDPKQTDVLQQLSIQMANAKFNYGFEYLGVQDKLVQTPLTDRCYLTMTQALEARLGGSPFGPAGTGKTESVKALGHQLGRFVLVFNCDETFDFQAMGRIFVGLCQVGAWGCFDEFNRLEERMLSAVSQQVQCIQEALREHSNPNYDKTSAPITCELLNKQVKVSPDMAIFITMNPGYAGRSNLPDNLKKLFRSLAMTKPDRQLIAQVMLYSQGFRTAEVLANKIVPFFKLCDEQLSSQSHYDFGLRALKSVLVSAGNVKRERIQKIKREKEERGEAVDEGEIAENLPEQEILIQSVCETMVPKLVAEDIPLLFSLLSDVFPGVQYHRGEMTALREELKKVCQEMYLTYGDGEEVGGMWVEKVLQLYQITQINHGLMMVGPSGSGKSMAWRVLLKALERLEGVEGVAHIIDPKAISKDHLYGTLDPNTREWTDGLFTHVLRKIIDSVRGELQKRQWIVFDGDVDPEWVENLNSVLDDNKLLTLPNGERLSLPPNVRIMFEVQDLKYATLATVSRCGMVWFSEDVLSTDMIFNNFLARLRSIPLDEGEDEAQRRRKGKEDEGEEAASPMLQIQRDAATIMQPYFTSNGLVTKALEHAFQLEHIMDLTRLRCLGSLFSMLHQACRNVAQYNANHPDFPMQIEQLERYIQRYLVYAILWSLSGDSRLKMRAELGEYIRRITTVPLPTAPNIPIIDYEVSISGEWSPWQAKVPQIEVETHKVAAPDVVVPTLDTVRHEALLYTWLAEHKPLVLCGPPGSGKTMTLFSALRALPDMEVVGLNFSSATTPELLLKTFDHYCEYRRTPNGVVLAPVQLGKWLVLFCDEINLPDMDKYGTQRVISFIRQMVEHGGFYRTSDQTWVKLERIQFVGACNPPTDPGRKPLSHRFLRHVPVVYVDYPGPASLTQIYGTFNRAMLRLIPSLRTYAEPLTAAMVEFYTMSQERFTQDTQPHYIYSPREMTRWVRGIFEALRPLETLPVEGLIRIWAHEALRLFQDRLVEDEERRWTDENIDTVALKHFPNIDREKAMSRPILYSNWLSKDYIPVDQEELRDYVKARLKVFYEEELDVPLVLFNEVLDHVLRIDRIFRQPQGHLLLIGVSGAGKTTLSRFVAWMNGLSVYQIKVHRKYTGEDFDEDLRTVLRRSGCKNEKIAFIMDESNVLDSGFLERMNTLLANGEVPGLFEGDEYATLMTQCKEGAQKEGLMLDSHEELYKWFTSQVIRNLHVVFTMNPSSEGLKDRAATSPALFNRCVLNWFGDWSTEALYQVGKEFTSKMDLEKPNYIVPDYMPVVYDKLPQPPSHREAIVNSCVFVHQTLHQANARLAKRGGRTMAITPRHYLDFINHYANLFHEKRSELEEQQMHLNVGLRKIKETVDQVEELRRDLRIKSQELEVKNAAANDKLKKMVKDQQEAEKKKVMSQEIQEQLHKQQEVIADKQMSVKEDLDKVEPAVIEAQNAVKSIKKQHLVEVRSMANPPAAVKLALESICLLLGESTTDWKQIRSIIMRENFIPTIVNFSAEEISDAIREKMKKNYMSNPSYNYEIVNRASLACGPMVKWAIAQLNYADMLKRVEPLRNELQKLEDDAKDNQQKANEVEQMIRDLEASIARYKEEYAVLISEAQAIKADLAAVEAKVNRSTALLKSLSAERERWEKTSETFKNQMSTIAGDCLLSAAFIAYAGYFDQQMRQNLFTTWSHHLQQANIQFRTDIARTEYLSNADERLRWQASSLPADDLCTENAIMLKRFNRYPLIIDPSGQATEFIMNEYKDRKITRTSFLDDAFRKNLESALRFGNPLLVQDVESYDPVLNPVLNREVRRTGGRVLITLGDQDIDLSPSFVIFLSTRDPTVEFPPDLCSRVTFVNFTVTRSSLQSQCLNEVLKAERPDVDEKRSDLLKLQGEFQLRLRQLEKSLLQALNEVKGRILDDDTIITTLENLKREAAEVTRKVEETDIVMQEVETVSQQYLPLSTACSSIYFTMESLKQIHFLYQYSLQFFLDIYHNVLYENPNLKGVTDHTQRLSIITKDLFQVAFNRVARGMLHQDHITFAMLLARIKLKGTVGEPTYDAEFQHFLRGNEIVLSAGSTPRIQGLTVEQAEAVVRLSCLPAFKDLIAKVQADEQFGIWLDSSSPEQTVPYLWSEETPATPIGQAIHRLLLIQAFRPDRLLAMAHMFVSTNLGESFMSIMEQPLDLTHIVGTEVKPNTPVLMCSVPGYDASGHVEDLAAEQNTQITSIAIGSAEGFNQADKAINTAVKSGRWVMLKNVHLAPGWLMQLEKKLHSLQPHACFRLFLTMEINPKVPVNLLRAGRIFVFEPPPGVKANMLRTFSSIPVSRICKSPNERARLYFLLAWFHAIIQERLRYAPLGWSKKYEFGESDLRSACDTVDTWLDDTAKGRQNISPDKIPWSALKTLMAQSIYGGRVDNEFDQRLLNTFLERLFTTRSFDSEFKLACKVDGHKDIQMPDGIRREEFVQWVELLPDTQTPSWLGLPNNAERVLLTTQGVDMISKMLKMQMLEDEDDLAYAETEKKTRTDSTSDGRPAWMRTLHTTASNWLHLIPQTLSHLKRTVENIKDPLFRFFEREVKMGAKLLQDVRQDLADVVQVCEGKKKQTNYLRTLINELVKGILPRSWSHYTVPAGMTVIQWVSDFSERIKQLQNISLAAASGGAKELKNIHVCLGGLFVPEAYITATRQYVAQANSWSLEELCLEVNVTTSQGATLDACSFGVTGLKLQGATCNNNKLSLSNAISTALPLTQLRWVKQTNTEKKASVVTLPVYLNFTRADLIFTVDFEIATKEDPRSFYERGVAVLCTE

compound: COC(=O)/C=C/c1ccccc1 [methyl cinnamate]; test: log2 ratio of iodoacetamide-alkyne labeling of the cysteine site, DMSO over compound (competition); higher = stronger covalent engagement of the cysteine by the compound, active = 1 or more; conditions: 500 µM; treatment time 1 h; system: HEK293T cell lysate
Method in brief: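 The log2 competition ratio per cysteine is defined as mean reporter intensity in control channels over mean reporter intensity in compound channels. Lysate from HEK293T cells (2 mg/mL) received electrophile (500 µM) or vehicle for 1 h at ambient temperature, followed by iodoacetamide alkyne for 1 h. Samples were clicked to sCIP-TMT reagents, pooled, trypsin-digested overnight at 37 °C, streptavidin-enriched, acid-eluted and run on Orbitrap Eclipse LC-MS/MS with FAIMS, with quantification in FragPipe. Three replicates with duplicate channels were used, and any cysteine quantified in only one replicate was excluded.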

log2 ratio of iodoacetamide-alkyne labeling, inactive:
MCM6 C185 (UniProt Q14566) 0.147
FHL1 C188 (UniProt Q13642) 0.202
MDC1 C26 (UniProt Q14676) 0.283
DRAP1 C73 (UniProt Q14919) 0.0375
FHL1 C92 (UniProt Q13642) 0.188
UniProt Q15004_C54 0.362
PDCD11 C361 (UniProt Q14690) 0.114
TRIM25 C186 (UniProt Q14258) 0.0491
UniProt Q13557_C273 -0.0104
UBE4A C1002 (UniProt Q14139) 0.23
UniProt Q14562_C123 0.243
UniProt Q13885_C129 0.173
RRP1B C197 (UniProt Q14684) 0.205
NUMA1 C80 (UniProt Q14980) 0.135
DCTN2 C240 (UniProt Q13561) 0.262
BLMH C40 (UniProt Q13867) 0.273
ZMYM3 C1106 (UniProt Q14202) -0.0319
TTLL12 C370 (UniProt Q14166) -0.0582
NCAPD2 C439 (UniProt Q15021) -0.31
DYNC1H1 C1977 (UniProt Q14204) 0.034
PEX6 C798 (UniProt Q13608) 0.0135
DYNC1H1 C633 (UniProt Q14204) 0.315
NCAPH C418 (UniProt Q15003) 0.0364
ZMYM3 C557 (UniProt Q14202) 0.0839
DYNC1H1 C3147 (UniProt Q14204) 0.305
FHL1 C153 (UniProt Q13642) 0.196
NUMA1 C803 (UniProt Q14980) 0.145
BMS1 C895 (UniProt Q14692) 0.0419
DDX39B C300 (UniProt Q13838) -0.358
UniProt Q13557_C373 0.412
CBX2 C222 (UniProt Q14781) 0.0771
GAPVD1 C1160 (UniProt Q14C86) -0.113
KPNB1 C436 (UniProt Q14974) 0.169
KPNB1 C817 (UniProt Q14974) 0.588
POLA2 C392 (UniProt Q14181) 0.157
FHL1 C132 (UniProt Q13642) -0.0307
GAMT C91 (UniProt Q14353) 0.107

No new results follow: entries from further up.
log2 ratio of iodoacetamide-alkyne labeling, inactive:
TRIM25 C186 (UniProt Q14258) 0.0491
UniProt Q13557_C273 -0.0104
UBE4A C1002 (UniProt Q14139) 0.23
